These results are taken from the supplement of paper PMC10849652.

Sequences of proteins named here, by UniProt entry; tags and fusion partners are left off. A change or cut given only in a name is not applied to a line headed by its entry.
UniProt P36542: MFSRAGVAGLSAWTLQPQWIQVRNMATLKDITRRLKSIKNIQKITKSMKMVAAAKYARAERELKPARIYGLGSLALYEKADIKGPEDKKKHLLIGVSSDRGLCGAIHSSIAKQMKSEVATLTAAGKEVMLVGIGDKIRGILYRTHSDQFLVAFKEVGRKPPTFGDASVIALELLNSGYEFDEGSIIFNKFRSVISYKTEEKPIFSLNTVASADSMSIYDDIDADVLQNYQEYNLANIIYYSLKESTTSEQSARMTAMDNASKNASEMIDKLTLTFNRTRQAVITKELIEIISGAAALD
UniProt O43861: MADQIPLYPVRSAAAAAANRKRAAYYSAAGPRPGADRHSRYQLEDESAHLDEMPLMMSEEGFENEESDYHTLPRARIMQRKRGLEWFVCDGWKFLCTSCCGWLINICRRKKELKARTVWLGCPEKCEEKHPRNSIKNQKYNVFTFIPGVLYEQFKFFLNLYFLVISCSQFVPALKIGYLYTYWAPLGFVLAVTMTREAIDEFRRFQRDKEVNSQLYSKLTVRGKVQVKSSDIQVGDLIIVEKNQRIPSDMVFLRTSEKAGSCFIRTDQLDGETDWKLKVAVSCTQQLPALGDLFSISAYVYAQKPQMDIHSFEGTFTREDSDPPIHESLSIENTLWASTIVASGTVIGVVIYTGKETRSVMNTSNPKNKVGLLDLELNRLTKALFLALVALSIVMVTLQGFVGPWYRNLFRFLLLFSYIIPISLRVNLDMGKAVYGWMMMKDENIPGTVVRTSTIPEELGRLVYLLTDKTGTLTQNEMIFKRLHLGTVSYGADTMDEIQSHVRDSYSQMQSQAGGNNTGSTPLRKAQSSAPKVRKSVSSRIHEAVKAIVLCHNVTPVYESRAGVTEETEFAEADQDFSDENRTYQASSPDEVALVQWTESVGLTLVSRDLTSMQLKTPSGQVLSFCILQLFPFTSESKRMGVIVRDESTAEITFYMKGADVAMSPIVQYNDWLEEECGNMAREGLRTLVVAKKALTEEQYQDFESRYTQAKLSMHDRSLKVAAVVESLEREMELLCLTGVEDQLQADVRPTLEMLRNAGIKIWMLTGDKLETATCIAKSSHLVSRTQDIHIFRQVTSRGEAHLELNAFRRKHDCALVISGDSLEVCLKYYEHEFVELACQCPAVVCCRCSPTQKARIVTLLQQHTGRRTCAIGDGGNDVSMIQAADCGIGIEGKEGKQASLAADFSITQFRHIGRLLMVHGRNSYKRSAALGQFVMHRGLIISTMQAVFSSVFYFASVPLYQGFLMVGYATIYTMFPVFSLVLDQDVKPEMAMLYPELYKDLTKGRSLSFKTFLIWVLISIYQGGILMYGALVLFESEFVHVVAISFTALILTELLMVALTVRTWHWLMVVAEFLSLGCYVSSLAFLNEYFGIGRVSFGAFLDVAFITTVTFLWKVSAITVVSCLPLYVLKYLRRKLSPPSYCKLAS
UniProt P46100: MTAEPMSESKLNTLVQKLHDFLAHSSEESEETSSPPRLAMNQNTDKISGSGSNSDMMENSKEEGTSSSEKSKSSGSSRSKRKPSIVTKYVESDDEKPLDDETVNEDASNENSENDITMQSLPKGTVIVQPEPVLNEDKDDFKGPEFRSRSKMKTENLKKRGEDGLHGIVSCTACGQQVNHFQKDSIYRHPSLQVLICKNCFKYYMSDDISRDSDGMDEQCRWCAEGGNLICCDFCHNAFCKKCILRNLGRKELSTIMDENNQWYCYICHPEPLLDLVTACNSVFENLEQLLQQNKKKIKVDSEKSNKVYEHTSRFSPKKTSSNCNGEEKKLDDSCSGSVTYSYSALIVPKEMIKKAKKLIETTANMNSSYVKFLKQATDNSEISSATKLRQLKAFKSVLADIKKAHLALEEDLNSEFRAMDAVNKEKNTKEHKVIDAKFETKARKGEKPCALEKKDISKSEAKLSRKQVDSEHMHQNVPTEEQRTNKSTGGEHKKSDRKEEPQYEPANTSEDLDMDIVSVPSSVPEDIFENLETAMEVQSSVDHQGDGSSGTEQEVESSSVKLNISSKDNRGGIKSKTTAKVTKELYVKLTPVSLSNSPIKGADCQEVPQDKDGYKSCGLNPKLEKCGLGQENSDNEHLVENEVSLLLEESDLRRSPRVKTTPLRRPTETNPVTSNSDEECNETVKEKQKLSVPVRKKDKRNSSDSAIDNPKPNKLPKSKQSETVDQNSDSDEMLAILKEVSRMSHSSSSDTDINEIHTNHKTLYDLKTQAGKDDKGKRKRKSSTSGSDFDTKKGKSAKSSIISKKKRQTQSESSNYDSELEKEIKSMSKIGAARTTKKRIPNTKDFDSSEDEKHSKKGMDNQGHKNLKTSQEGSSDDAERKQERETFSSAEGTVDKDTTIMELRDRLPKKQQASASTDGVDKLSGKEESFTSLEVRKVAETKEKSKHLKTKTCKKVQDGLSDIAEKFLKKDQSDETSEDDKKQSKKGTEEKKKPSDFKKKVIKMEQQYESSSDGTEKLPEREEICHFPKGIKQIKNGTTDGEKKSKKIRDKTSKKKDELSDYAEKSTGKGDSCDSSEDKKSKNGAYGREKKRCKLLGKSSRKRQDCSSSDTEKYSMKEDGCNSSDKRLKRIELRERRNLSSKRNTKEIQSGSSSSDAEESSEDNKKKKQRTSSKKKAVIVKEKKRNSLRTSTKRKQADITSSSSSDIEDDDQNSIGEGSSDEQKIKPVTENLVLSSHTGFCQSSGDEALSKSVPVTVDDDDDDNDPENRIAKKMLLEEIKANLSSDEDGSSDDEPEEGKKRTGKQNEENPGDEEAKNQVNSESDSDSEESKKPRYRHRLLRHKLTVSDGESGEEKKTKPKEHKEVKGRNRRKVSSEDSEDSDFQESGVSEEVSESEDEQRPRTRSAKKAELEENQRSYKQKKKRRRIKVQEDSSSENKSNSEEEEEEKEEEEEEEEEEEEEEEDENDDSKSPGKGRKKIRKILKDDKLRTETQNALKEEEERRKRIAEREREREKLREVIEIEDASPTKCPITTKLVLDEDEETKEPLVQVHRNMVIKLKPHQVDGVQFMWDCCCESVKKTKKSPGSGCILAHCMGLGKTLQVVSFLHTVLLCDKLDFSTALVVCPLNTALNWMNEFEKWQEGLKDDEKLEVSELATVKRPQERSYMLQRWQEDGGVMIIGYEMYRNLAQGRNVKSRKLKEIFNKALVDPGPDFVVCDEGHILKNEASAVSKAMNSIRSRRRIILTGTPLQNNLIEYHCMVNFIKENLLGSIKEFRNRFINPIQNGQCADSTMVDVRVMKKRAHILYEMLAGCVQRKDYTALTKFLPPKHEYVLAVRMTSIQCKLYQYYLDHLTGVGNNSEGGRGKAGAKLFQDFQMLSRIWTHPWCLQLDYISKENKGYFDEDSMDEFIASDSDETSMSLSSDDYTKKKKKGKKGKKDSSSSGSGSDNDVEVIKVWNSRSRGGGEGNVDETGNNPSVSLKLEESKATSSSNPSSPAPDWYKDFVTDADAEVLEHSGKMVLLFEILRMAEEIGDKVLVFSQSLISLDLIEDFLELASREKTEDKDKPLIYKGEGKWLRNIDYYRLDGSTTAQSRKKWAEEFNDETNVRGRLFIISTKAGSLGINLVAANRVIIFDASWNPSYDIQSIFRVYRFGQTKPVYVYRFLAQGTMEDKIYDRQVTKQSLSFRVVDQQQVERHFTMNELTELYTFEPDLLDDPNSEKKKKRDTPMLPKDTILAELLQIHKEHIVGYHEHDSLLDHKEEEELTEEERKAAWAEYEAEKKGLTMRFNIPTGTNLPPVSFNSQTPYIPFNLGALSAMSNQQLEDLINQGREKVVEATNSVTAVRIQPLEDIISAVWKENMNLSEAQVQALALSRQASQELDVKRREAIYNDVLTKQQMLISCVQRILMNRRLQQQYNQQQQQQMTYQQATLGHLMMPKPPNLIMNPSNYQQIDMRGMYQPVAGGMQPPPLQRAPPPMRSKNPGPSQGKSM
UniProt Q16864, whole entry, looked up: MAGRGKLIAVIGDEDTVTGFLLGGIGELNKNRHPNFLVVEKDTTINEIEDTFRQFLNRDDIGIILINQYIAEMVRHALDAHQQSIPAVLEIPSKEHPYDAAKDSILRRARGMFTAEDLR
UniProt Q9BSB4: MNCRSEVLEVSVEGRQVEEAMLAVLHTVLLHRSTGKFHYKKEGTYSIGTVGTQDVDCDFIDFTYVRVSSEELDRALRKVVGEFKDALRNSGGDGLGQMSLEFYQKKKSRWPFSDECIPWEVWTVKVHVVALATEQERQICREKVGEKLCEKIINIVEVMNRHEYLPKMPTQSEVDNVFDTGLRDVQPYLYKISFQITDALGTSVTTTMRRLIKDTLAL
UniProt Q6VMQ6: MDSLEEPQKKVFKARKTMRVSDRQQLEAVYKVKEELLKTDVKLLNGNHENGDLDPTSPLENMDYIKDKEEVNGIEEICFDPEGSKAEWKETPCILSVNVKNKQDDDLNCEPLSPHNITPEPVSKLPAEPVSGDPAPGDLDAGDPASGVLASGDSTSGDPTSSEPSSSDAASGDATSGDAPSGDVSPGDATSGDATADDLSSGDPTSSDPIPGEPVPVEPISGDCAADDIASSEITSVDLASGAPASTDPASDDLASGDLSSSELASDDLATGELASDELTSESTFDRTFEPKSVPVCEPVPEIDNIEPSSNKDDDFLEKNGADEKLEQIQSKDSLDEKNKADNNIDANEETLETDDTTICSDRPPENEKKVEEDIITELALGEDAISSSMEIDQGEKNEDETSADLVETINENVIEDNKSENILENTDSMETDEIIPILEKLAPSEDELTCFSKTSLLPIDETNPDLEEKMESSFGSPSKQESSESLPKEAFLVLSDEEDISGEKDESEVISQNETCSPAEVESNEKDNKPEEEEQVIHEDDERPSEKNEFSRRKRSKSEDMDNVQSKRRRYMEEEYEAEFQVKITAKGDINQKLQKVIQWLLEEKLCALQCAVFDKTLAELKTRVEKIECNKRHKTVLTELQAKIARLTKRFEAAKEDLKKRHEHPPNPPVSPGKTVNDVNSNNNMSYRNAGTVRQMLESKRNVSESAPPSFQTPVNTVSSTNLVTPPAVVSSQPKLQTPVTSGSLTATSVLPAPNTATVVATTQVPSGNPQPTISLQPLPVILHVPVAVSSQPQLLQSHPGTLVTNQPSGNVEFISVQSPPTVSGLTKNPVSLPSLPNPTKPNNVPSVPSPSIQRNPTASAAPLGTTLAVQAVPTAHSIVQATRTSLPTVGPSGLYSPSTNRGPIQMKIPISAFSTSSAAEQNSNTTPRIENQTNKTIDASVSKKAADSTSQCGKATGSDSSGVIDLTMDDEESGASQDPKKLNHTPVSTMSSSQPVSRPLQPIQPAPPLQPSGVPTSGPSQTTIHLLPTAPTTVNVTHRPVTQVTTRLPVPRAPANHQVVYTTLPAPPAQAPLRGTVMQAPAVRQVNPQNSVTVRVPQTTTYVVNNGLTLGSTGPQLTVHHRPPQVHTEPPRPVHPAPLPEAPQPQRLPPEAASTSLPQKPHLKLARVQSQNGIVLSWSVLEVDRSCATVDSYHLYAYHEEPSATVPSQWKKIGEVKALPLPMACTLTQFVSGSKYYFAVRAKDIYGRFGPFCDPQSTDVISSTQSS
UniProt P30049: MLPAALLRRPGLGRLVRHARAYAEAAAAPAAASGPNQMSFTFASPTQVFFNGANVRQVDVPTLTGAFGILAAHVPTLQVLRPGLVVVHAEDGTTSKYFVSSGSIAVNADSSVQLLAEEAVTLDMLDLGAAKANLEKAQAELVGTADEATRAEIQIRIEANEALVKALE
UniProt Q9BYG0: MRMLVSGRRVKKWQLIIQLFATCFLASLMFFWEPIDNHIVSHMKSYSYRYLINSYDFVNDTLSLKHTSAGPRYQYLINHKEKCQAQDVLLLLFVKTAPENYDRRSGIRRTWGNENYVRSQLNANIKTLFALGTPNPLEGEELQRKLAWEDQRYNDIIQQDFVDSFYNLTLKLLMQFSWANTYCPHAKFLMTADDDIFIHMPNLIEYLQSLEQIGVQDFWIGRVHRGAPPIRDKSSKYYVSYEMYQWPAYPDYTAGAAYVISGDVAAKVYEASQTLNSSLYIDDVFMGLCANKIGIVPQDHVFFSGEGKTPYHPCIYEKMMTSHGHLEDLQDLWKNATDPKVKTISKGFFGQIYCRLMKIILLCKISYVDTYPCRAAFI
UniProt Q13825: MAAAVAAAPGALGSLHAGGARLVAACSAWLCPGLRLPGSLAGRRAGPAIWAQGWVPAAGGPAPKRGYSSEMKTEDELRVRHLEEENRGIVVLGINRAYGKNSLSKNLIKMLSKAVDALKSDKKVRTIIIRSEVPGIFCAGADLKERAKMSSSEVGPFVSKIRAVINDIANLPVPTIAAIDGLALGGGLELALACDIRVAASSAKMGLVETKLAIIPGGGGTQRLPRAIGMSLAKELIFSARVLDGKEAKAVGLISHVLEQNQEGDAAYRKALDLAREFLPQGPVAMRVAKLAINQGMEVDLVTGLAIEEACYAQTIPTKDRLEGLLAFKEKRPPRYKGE
UniProt Q9UII2: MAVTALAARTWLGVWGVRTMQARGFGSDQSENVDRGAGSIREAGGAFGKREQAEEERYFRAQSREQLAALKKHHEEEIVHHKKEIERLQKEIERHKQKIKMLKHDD

This is one part of the list.

Common to all, as to test: log2 fold change, soluble protein after heating vs DMSO (PISA); higher = thermal stabilisation; K562 lysate, 10 uM; active = over 0.2 and 3.5 SD of the protein, either way, in both replicates (recomputed)
Compound in assay [1]: NCC(=O)Nc1ccc(-n2nc(C(F)(F)F)cc2-c2ccc3c(ccc4ccccc43)c2)cc1
The method, boiled down: (§1)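 Soluble protein was defined as the supernatant remaining after 21,000xg for 90 min, following pooling of heated aliquots and adjustment to 0.5% NP-40 at 4°C. Before that, crude K562 extract at 1 mg/mL protein in PBS pH 7.4 with 1 mM MgCl2 was treated with 10 μM compound for 30 min and heated for 3 min across 48°C-58°C. Quantification used TMTpro 16plex LC-MS/MS with channel sums equalised, and values are log-two fold changes in thermal stability relative to solvent controls from duplicates.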

Compound in a further assay: O=C(CCCCCCC(=O)Nc1ccccc1)NO [vorinostat]
The method, boiled down:
as §1

Compound in the next assay: O=C(O)c1ccc2c(c1)nc(Nc1cccc(Cl)c1)c1ccncc12 [silmitasertib]
The method in brief: as §1

Compound in assay [2]: O=C1NC(=O)C(c2cnc3ccccn23)=C1c1cn2c3c(cc(F)cc13)CN(C(=O)N1CCCCC1)CC2
The method in brief:
as §1

Compound in another assay: c1cn2cc(-c3ccc4cn[nH]c4c3)nc(Nc3ccc(N4CCOCC4)cc3)c2n1 [entospletinib]
The method in brief: as §1

For ATP5F1C (UniProt P36542), the log2 fold change in assay [1] was inactive: -0.004; with vorinostat, inactive: 0.099; with silmitasertib, inactive: 0.023; in assay [2] it was inactive: -0.029; with entospletinib, inactive: 0.004.
The matching figures for ATRIP (UniProt Q8WXE1): inactive: -0.088, inactive: -0.28, inactive: 0.229, inactive: 0.039 and inactive: -0.009.
Consider ATP6V0D1 (UniProt P61421), for which the log2 fold change in assay [1] was inactive: -0.167; with vorinostat, inactive: 0.13; with silmitasertib it was inactive: 0; in assay [2] it was inactive: 0.05; with entospletinib it was inactive: -0.036.
The matching figures for ATP9B (UniProt O43861): inactive: 0.013, inactive: 0.012, inactive: 0.005, inactive: -0.045 and inactive: 0.
Regarding ATRX (UniProt P46100), the log2 fold change was inactive: 0.066 in assay [1]; inactive: -0.239 with vorinostat; inactive: -0.05 with silmitasertib; inactive: -0.08 in assay [2]; inactive: 0.01 with entospletinib.
The matching figures for AURKAIP1 (UniProt Q9NWT8): inactive: 0.073, inactive: 0.08, inactive: -0.01, inactive: 0.071 and inactive: -0.081.
ATP6V1F isoform 2 (UniProt Q16864): the log2 fold change in assay [1] is inactive: 0.055; in the assay with vorinostat, inactive: -0.06; in the assay with silmitasertib it was inactive: 0.021; in assay [2] it was inactive: 0.086; in the assay with entospletinib, inactive: -0.04.
The matching figures for ASH2L (UniProt Q9UBL3): inactive: -0.025, inactive: -0.084, inactive: -0.005, inactive: -0.025 and inactive: 0.002.
Consider ATG101 (UniProt Q9BSB4), for which the log2 fold change in assay [1] is inactive: -0.01; with vorinostat it was inactive: 0.087; with silmitasertib, inactive: -0.069; in assay [2], inactive: -0.094; with entospletinib it was inactive: -0.001.
The matching figures for ATP11A (UniProt P98196): inactive: 0.168, active: -0.265, inactive: 0.106, inactive: 0.009 and inactive: -0.054.
The matching figures for ATXN7L3B (UniProt Q96GX2): inactive: -0.012, inactive: 0.077, inactive: -0.048, inactive: 0.022 and inactive: 0.062.
The matching figures for ATIC (UniProt P31939): inactive: 0, inactive: -0.033, inactive: 0.056, inactive: 0.01 and inactive: -0.002.
Take ATF7IP isoform 4 (UniProt Q6VMQ6): the log2 fold change in assay [1] was inactive: -0.009; with vorinostat, inactive: -0.014; with silmitasertib it was inactive: -0.006; in assay [2] it was inactive: -0.019; in the assay with entospletinib, inactive: -0.033.
The matching figures for ATF2 (UniProt P15336): inactive: -0.016, inactive: -0.097, inactive: -0.057, inactive: -0.008 and inactive: -0.091.
The matching figures for ATPAF2 (UniProt Q8N5M1): inactive: -0.016, inactive: 0.044, inactive: 0.009, inactive: -0.038 and inactive: -0.058.
The matching figures for ATP1A3 isoform 3 (UniProt P13637): inactive: 0.028, inactive: 0.087, inactive: 0.003, inactive: 0.004 and inactive: 0.006.
Take ATP11C (UniProt Q8NB49): the log2 fold change is inactive: -0.019 in assay [1]; inactive: 0.072 with vorinostat; inactive: 0.014 with silmitasertib; inactive: -0.005 in assay [2]; inactive: -0.002 in the assay with entospletinib.
With ATG4B (UniProt Q9Y4P1), the log2 fold change was inactive: -0.009 in assay [1]; active: -0.274 with vorinostat; inactive: 0.043 in the assay with silmitasertib; inactive: -0.014 in assay [2]; inactive: 0.021 with entospletinib.
The matching figures for ATP5MF-PTCD1 (UniProt G3V325): inactive: 0.002, inactive: 0.074, inactive: 0.047, inactive: -0.012 and inactive: 0.029.
The matching figures for ASB6 (UniProt Q9NWX5): inactive: 0.116, inactive: -0.005, inactive: -0.057, inactive: -0.019 and inactive: 0.074.
With ATG3 (UniProt Q9NT62), the log2 fold change in assay [1] is inactive: -0.038; in the assay with vorinostat it was inactive: 0.004; with silmitasertib it was inactive: 0.014; in assay [2] it was inactive: 0.061; with entospletinib, inactive: 0.
For ASF1A (UniProt Q9Y294), the log2 fold change in assay [1] was inactive: -0.006; with vorinostat, inactive: 0.04; in the assay with silmitasertib, inactive: 0.022; in assay [2], inactive: -0.011; with entospletinib, inactive: 0.002.
The matching figures for AXIN1 (UniProt O15169): inactive: 0.014, inactive: -0.024, inactive: 0.04, inactive: 0.063 and inactive: 0.034.
The matching figures for ATP5F1D (UniProt P30049): inactive: -0.079, inactive: 0.135, inactive: 0.027, inactive: 0.019 and inactive: -0.036.
Take B3GNT5 (UniProt Q9BYG0): the log2 fold change in assay [1] is inactive: -0.062; with vorinostat, inactive: 0.231; with silmitasertib, inactive: 0.077; with entospletinib it was inactive: -0.068.
As to ATXN10 (UniProt Q9UBB4), the log2 fold change in assay [1] was inactive: 0.017; with vorinostat, inactive: -0.049; in the assay with silmitasertib it was inactive: 0.006; in assay [2], inactive: -0.022; with entospletinib it was inactive: 0.005.
The matching figures for AUH (UniProt Q13825): inactive: 0.1, inactive: -0.068, inactive: 0.017, inactive: -0.063 and inactive: -0.11.
The matching figures for ATP5IF1 (UniProt Q9UII2): inactive: 0.05, inactive: 0.146, inactive: -0.025, inactive: 0.019 and inactive: 0.014.
As for ATG14 (UniProt Q6ZNE5), the log2 fold change is inactive: 0.02 in assay [1], inactive: 0.01 with vorinostat, inactive: 0.121 in the assay with silmitasertib and inactive: -0.129 with entospletinib.
